This test is described as follows: qHTS Assay for Lipid Storage Modulators in Drosophila S3 Cells.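 On cell number change: cells counted by Cell Tracker Red CMTPX staining in the red channel.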 Particulars: BODIPY lipid droplet fluorescence, 18-24 h; for cell number change: measured here: cell count max response, cells fed with added oleic acid. Summed up: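 Laser-scanning cytometry quantifies lipid droplet accumulation (500–530 nm total intensity; droplet/cell object ratio) in oleic acid-fed (400 uM added) Drosophila S3 cells treated with a concentration series. 20 uM Triacsin C defined 100% inhibition.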
Background: Quantitative high-throughput screening tests each substance at several concentrations.

The mark [1] stands for this setting: measured here: lipid fluorescence (Fed channel) AC50, cells fed with added oleic acid.
Where [2] appears, read: measured here: cell number channel AC50, cells fed with added oleic acid.

Structures are written as SMILES. The list shows a part of the results. The main result of the screen is listed elsewhere. These columns were measured beside it and carry no call. The list favours compounds with an active or inconclusive main result. Words in brackets tell the shape of the fitted curve; partial curves, single points and poor fits give uncertain potencies.

As usually defined, the AC50 is the concentration at which the activity in the assay is half-maximal. The low end stands for activity at low concentration, the high end for activity only at high concentration. Turning to `NNc1ccc2c(C(F)(F)F)cc(C(F)(F)F)nc2n1`, the AC50 under setting [1] is 116 nM [falling, full curve, poor fit].

`O=C(NN=c1c(=O)c2ccccc2c1=O)c1ccccc1`: the cell number change stood at 17.9%. Besides, the AC50 under setting [1] was 4610 nM [rising, partial curve]. Take `COc1cccc(N(CC(=O)NC2CCCC2)C(=O)Cn2nnc(-c3ccc(C)cc3)n2)c1`: the cell number change was 13.5%. For the compound `CC1(C)N=C(c2cccc(F)c2)C(=O)N1`, the cell number change was 10.7%.

In the case of `COc1ccc(OC)c(NC(=O)c2cc(-c3cc(C)c(C)cc3O)n[nH]2)c1`, the cell number change stood at 142%. For the same compound, the AC50 under setting [2] is 29100 nM [rising, single point]. Further, the AC50 under setting [1] was 29100 nM [rising, single point]. On to `CCOC(=O)N1CCN(C(=O)CSc2nnc(-c3ccc(C(C)(C)C)cc3)o2)CC1`, for which the cell number change was -18.1%. Further, under setting [1], the AC50 was 2060 nM [falling, full curve]. `Cn1nc(C(=O)N2CCCCC2)c2c1-c1ccccc1S(=O)(=O)C2`: the cell number change was 31%. Besides, the AC50 under setting [2] was 4.61 nM [rising, full curve, poor fit]. Moreover, the AC50 under setting [1] was 29100 nM [rising, single point].

With `CN(CC1CCOCC1)C(=O)CC1C(=O)NCCN1Cc1cccc(C(F)(F)F)c1` (configuration not stated), the cell number change came out at 4.36%. Further, the AC50 under setting [1] was 5.17 nM [rising, full curve, poor fit]. On to `CC(=O)Nc1nonc1-n1nnc(C(=O)NCc2ccccc2)c1C`, for which the AC50 under setting [1] is 4.11 nM [rising, full curve, poor fit].

In the case of `Cc1cccc(N2C(=O)CC(Sc3nc(-c4ccccc4)c4cc(Cl)ccc4n3)C2=O)c1` (configuration not stated), the cell number change was -8.39%. Further, under setting [1], the AC50 is 3660 nM [rising, full curve, poor fit]. `Cc1cc(NCCCn2ccnc2)n2c(nc3ccccc32)c1C#N`: the cell number change was determined as 176%. For the same compound, the AC50 under setting [2] is 6510 nM [rising, partial curve]. In addition, the AC50 under setting [1] was 1160 nM [rising, partial curve].

Regarding `Cc1c(N=C2N=C(NC(=O)NC(C)(C)C)c3ccccc32)c(=O)n(-c2ccccc2)n1C`, the cell number change was -12.9%. Turning to `Nc1c(C(=O)Nc2ccc3c(c2)OCCO3)nnn1Cc1ccc(F)cc1`, the cell number change was -25%. For the same compound, under setting [2], the AC50 is 1460 nM [rising, partial curve].

For the compound `O=C(c1ccc(CNS(=O)(=O)c2ccc(Br)cc2)cc1)N1CCCCC1`, the cell number change came out at 0.763%. `Cc1ccc(C(=O)NC(=S)NCCCN2CCOCC2)cc1`: the cell number change is -19%. Further, the half-maximal activity concentration (AC50) under setting [1] is 5170 nM [falling, full curve, poor fit]. For `COc1ccc(CCNC(=O)CCn2c(SCC#N)nc3ccccc3c2=O)cc1OC`, the cell number change is 1.98%. For the same compound, the AC50 under setting [1] is 5800 nM [rising, full curve, poor fit]. For the compound `O=C(Nc1ccc2c(c1)S(=O)(=O)N=C1CCCCCN12)c1ccccc1Cl`, the cell number change was 44.8%. Also, the AC50 under setting [2] is 731 nM [rising, full curve]. In addition, the AC50 under setting [1] was 731 nM [rising, full curve].

For the origin of these results see PubChem BioAssay AID2685 (National Center for Advancing Translational Sciences (NCATS), 2010).
